In test [1] the target is SlpX_ac_II, middle domain of the S-layer protein SlpX of Lactobacillus acidophilus (Lactobacillus acidophilus ATCC4356) (UniProt Q5FLN0). Nature of the test: crystal structure; contacts between neighbouring molecules in crystals of single recombinant domains; sitting drop vapor diffusion, 20 °C, data at 100 K; both purified.
Test [2] has as its target SlpA_ac_II, domain II of the S-layer protein SlpA of Lactobacillus acidophilus ATCC4356 (Lactobacillus acidophilus ATCC4356) (UniProt P35829). The description is as above.

No constants are given. Whether binding was seen depends on the method and setting. Some results given as binding are weak or reduced against the parent protein; the word gives no strength.

In PMC11181022, “The molecular architecture of Lactobacillus S-layer: Assembly and attachment to teichoic acids” (Proceedings of the National Academy of Sciences of the …, 2024) one finds binding data, which are given here for two molecules.

B1: SlpX_ac_II, middle domain of the S-layer protein SlpX of Lactobacillus acidophilus (domain or fragment, UniProt Q5FLN0 184-362)
chain: STPTDTTQNPQINWTKGGQAQSSSLNGQVFQVAVGSNFNPLNFTNSNGENIIVSAQQSKNNTTFASIEATSNPVNTSEAGRYYNVTLTATGNTGKKTTATYTVLITSSQKQTLYGNGESTISTYSIYGNNVLSNSTTFKDGDQVYVSDQTKTVGGVSYSQVSPKSKNDANSSNIWVKTS
As to B1, the binding entry in test [1] is on record as “binds”.

B2: SlpA_ac_II, domain II of the S-layer protein SlpA of Lactobacillus acidophilus ATCC4356 (domain or fragment, UniProt P35829 199-308)
chain: NVNFYDVTSGATVTNGAVSVNADNQGQVNVANVVAAINSKYFAAQYADKKLNTRTANTEDAIKAALKDQKIDVNSVGYFKAPHTFTVNVKATSNTNGKSATLPVVVTVPN
With B2, the binding entry in test [2] is reported as “binds”.
